Data published in article PMC8313941.
Results are given in words; binding and its absence hold for the method and conditions named. In cells and extracts the contact can be indirect. Some entries that bind do so weakly or less than the wild type. Sequences can lack the tags named with a protein.

Chains of the proteins cited; added tags and fusions are not shown.
UniProt O60244: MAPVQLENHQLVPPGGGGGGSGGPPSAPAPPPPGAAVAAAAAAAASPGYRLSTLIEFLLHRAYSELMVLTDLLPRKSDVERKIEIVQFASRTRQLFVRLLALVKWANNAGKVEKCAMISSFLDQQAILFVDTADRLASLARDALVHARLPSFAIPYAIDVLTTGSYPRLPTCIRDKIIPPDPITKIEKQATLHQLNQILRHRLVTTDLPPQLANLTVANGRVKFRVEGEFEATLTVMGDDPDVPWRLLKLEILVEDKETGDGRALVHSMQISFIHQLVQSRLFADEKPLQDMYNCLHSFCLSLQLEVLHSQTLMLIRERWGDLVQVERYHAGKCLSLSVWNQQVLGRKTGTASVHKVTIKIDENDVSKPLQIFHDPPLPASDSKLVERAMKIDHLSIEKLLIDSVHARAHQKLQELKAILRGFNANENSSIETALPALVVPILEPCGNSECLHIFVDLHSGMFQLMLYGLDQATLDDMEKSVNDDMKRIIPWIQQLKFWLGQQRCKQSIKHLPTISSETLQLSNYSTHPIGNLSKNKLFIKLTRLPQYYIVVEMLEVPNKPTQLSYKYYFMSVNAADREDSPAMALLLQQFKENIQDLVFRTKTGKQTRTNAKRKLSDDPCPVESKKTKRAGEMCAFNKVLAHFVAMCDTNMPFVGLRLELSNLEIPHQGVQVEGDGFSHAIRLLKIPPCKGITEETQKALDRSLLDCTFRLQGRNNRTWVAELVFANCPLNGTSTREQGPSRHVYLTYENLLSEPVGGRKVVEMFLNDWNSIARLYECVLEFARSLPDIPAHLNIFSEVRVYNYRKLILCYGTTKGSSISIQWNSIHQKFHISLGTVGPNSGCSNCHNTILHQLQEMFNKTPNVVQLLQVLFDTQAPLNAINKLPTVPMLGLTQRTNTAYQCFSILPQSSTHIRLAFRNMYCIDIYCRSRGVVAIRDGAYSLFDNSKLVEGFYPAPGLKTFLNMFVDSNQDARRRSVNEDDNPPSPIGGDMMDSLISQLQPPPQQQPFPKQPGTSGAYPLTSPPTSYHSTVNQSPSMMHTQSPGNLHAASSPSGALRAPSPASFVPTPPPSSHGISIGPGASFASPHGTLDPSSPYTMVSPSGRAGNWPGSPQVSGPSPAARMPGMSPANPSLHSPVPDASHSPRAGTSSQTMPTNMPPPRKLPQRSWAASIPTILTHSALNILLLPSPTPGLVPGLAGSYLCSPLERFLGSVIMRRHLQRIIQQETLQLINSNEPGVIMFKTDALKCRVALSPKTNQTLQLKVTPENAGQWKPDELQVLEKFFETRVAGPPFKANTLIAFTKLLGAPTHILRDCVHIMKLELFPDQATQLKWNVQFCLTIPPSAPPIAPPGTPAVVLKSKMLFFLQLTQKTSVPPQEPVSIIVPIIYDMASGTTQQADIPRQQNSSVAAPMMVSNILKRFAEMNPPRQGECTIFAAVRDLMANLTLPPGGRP

T1: FLAG-tagged MED17 (human) (UniProt Q9NVC6)
T1 sequence: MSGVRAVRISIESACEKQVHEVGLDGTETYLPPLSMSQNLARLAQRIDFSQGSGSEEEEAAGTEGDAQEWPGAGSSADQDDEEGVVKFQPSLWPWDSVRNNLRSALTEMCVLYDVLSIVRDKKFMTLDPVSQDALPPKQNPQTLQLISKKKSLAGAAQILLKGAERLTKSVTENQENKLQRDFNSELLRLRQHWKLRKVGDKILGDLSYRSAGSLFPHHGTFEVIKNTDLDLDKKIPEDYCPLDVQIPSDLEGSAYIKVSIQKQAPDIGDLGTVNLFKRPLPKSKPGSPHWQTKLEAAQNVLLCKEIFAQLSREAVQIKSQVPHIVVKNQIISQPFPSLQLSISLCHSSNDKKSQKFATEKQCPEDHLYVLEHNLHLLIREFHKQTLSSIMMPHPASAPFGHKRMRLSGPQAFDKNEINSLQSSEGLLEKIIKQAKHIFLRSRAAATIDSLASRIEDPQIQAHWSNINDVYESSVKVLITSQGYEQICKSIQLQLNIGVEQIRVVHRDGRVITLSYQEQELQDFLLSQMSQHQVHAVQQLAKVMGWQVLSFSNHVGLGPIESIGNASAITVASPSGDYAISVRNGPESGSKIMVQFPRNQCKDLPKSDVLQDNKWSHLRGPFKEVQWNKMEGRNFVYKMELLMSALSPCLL


Target: T1, FLAG-tagged MED17 (human)
Assay: co-IP + SEC; Hi5 cell extract (BC500) on anti-FLAG M2 agarose, washed with BC300, eluted with 0.5 mg/mL FLAG peptide, then Superose 6 gel filtration; Coomassie or silver stain

| binding | Molecule |
| --- | --- |
| binds | MED14 (from UniProt O60244 1-1454) |
| binds | MED18 (protein, UniProt Q9BUE0 1-208) MEAPPVTMMPVTGGTINMMEYLLQGSVLDHSLESLIHRLRGLCDNMEPETFLDHEMVFLLKGQQASPFVLRARRSMDRAGAPWHLRYLGQPEMGDKNRHALVRNCVDIATSENLTDFLMEMGFRMDHEFVAKGHLFRKGIMKIMVYKIFRILVPGNTDSTEALSLSYLVELSVVAPAGQDMVSDDMKNFAEQLKPLVHLEKIDPKRLM |
| binds | MED22 (protein, UniProt Q15528 1-200) MAQQRALPQSKETLLQSYNKRLKDDIKSIMDNFTEIIKTAKIEDETQVSRATQGEQDNYEMHVRAANIVRAGESLMKLVSDLKQFLILNDFPSVNEAIDQRNQQLRTLQEECDRKLITLRDEISIDLYELEEEYYSSSSSLCEANDLPLCEAYGRLDLDTDSADGLSAPLLASPEPSAGPLQVAAPAHSHAGGPGPTEHA |
| binds | MED20 (protein, UniProt Q9H944 1-212) MGVTCVSQMPVAEGKSVQQTVELLTRKLEMLGAEKQGTFCVDCETYHTAASTLGSQGQTGKLMYVMHNSEYPLSCFALFENGPCLIADTNFDVLMVKLKGFFQSAKASKIETRGTRYQYCDFLVKVGTVTMGPSARGISVEVEYGPCVVASDCWSLLLEFLQSFLGSHTPGAPAVFGNRHDAVYGPADTMVQYMELFNKIRKQQQVPVAGIR |
| binds | His-MED10 (protein, UniProt Q9BTT4 1-135) MAEKFDHLEEHLEKFVENIRQLGIIVSDFQPSSQAGLNQKLNFIVTGLQDIDKCRQQLHDITVPLEVFEYIDQGRNPQLYTKECLERALAKNEQVKGKIDTMKKFKSLLIQELSKVFPEDMAKYRSIRGEDHPPS |
| binds | MED30 (protein, UniProt Q96HR3 1-178) MSTPPLAASGMAPGPFAGPQAQQAAREVNTASLCRIGQETVQDIVYRTMEIFQLLRNMQLPNGVTYHTGTYQDRLTKLQDNLRQLSVLFRKLRLVYDKCNENCGGMDPIPVEQLIPYVEEDGSKNDDRAGPPRFASEERREIAEVNKKLKQKNQQLKQIMDQLRNLIWDINAMLAMRN |
| binds | Myc-MED21 (protein, UniProt Q13503 1-144) MADRLTQLQDAVNSLADQFCNAIGVLQQCGPPASFNNIQTAINKDQPANPTEEYAQLFAALIARTAKDIDVLIDSLPSEESTAALQAASLYKLEEENHEAATCLEDVVYRGDMLLEKIQSALADIAQSQLKTRSGTHSQSLPDS |
| binds | MED6 (protein, UniProt O75586 1-246) MAAVDIRDNLLGISWVDSSWIPILNSGSVLDYFSERSNPFYDRTCNNEVVKMQRLTLEHLNQMVGIEYILLHAQEPILFIIRKQQRQSPAQVIPLADYYIIAGVIYQAPDLGSVINSRVLTAVHGIQSAFDEAMSYCRYHPSKGYWWHFKDHEEQDKVRPKAKRKEEPSSIFQRQRVDALLLDLRQKFPPKFVQLKPGEKPVPVDQTKKEAEPIPETVKPEEKETTKNVQQTVSAKGPPEKRMRLQ |
| binds | HA-MED7 (protein, UniProt O43513 1-233) MGEPQQVSALPPPPMQYIKEYTDENIQEGLAPKPPPPIKDSYMMFGNQFQCDDLIIRPLESQGIERLHPMQFDHKKELRKLNMSILINFLDLLDILIRSPGSIKREEKLEDLKLLFVHVHHLINEYRPHQARETLRVMMEVQKRQRLETAERFQKHLERVIEMIQNCLASLPDDLPHSEAGMRVKTEPMDADDSNNCTGQNEHQRENSGHRRDQIIEKDAALCVLIDEMNERP |
| binds | MED4 (protein, UniProt Q9NPJ6 1-270) MAASSSGEKEKERLGGGLGVAGGNSTRERLLSALEDLEVLSRELIEMLAISRNQKLLQAGEENQVLELLIHRDGEFQELMKLALNQGKIHHEMQVLEKEVEKRDSDIQQLQKQLKEAEQILATAVYQAKEKLKSIEKARKGAISSEEIIKYAHRISASNAVCAPLTWVPGDPRRPYPTDLEMRSGLLGQMNNPSTNGVNGHLPGDALAAGRLPDVLAPQYPWQSNDMSMNMLPPNHSSDFLLEPPGHNKENEDDVEIMSTDSSSSSSESD |
| binds | MED8 (protein, UniProt Q96G25 1-268) MQREEKQLEASLDALLSQVADLKNSLGSFICKLENEYGRLTWPSVLDSFALLSGQLNTLNKVLKHEKTPLFRNQVIIPLVLSPDRDEDLMRQTEGRVPVFSHEVVPDHLRTKPDPEVEEQEKQLTTDAARIGADAAQKQIQSLNKMCSNLLEKISKEERESESGGLRPNKQTFNPTDTNALVAAVAFGKGLSNWRPSGSSGPGQAGQPGAGTILAGTSGLQQVQMAGAPSQQQPMLSGVQMAQAGQPGKMPSGIKTNIKSASMHPYQR |
| binds | MED11 (protein, UniProt Q9P086 1-117) MATYSLANERLRALEDIEREIGAILQNAGTVILELSKEKTNERLLDRQAAAFTASVQHVEAELSAQIRYLTQVATGQPHEGSSYSSRKDCQMALKRVDYARLKLSDVARTCEQMLEN |
| binds | MED31 (protein, UniProt Q9Y3C7 1-131) MAAAVAMETDDAGNRLRFQLELEFVQCLANPNYLNFLAQRGYFKDKAFVNYLKYLLYWKDPEYAKYLKYPQCLHMLELLQYEHFRKELVNAQCAKFIDEQQILHWQHYSRKRMRLQQALAEQQQQNNTSGK |
| binds | MED9 (protein, UniProt Q9NWA0 1-146) MASAGVAAGRQAEDVLPPTSDQPLPDTKPLPPPQPPPVPAPQPQQSPAPRPQSPARAREEENYSFLPLVHNIIKCMDKDSPEVHQDLNALKSKFQEMRKLISTMPGIHLSPEQQQQQLQSLREQVRTKNELLQKYKSLCMFEIPKE |
